Results taken from article PMC4720893.
Results are given in words; binding and its absence hold for the method and conditions named. In cells and extracts the contact can be indirect. Some entries that bind do so weakly or less than the wild type.

Chains of the proteins cited; added tags and fusions are not shown.
UniProt P03496: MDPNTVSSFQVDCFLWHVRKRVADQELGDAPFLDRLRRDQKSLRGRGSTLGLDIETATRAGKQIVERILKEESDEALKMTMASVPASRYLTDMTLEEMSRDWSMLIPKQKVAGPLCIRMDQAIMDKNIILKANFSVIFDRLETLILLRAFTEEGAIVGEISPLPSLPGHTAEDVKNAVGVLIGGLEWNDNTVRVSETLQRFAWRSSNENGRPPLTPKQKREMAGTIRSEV
UniProt P03466: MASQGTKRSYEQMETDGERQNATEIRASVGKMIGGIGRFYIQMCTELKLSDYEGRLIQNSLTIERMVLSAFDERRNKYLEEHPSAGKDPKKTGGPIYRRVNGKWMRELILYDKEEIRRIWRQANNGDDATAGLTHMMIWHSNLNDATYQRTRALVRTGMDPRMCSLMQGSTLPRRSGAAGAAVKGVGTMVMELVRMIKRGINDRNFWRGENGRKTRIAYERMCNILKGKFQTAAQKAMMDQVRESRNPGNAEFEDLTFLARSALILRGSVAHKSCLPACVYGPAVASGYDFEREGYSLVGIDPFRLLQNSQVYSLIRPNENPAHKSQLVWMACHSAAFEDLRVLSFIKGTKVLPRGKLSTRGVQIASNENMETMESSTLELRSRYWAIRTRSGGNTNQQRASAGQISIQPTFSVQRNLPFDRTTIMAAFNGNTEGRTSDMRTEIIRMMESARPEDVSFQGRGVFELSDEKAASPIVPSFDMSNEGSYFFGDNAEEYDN

Tests used:
Assay in all cases: co-IP
[1] = biological target: T1, API5 (apoptosis inhibitor protein 5), endogenous in A549 cells (human (endogenous in A549)) (UniProt Q9BZZ5)
T1 sequence: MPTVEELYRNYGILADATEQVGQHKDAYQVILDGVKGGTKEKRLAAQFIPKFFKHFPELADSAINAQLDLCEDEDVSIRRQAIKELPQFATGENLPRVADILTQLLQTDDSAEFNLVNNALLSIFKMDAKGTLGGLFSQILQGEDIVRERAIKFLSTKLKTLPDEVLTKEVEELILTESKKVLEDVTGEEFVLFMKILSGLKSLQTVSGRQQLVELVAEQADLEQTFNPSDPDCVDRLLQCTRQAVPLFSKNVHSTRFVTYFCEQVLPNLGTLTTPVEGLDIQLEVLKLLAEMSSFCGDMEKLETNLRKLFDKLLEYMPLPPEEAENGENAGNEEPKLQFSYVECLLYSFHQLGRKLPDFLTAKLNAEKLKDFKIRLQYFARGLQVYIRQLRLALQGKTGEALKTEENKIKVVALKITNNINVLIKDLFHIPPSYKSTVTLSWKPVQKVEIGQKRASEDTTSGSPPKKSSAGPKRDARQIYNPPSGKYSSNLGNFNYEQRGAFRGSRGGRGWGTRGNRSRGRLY

[2] = biological target: NS1 of influenza A virus A/Puerto Rico/8/34 (PR8), in infected A549 cells (influenza A virus A/Puerto Rico/8/34 (H1N1; PR8)) (UniProt P03496)
[3] = biological target: nucleoprotein (NP) of influenza A virus A/Puerto Rico/8/34 (H1N1; PR8), in infected A549 cells (influenza A virus A/Puerto Rico/8/34 (H1N1; PR8)) (UniProt P03466)

| Molecule | binding [1] | binding [2] | binding [3] |
| --- | --- | --- | --- |
| nucleoprotein (NP) of influenza A virus A/Puerto Rico/8/34 (H1N1; PR8), in infected A549 cells (from UniProt P03466 1-498) | binds | – | – |
| API5 (apoptosis inhibitor protein 5), endogenous in A549 cells (protein, UniProt Q9BZZ5 1-524) MPTVEELYRNYGILADATEQVGQHKDAYQVILDGVKGGTKEKRLAAQFIPKFFKHFPELADSAINAQLDLCEDEDVSIRRQAIKELPQFATGENLPRVADILTQLLQTDDSAEFNLVNNALLSIFKMDAKGTLGGLFSQILQGEDIVRERAIKFLSTKLKTLPDEVLTKEVEELILTESKKVLEDVTGEEFVLFMKILSGLKSLQTVSGRQQLVELVAEQADLEQTFNPSDPDCVDRLLQCTRQAVPLFSKNVHSTRFVTYFCEQVLPNLGTLTTPVEGLDIQLEVLKLLAEMSSFCGDMEKLETNLRKLFDKLLEYMPLPPEEAENGENAGNEEPKLQFSYVECLLYSFHQLGRKLPDFLTAKLNAEKLKDFKIRLQYFARGLQVYIRQLRLALQGKTGEALKTEENKIKVVALKITNNINVLIKDLFHIPPSYKSTVTLSWKPVQKVEIGQKRASEDTTSGSPPKKSSAGPKRDARQIYNPPSGKYSSNLGNFNYEQRGAFRGSRGGRGWGTRGNRSRGRLY | – | no binding | binds |
